{"source": "patent US5733881A", "about": "(Astra AB, priority 1994, dated 1998)", "assay": "general procedure: Boc solid-phase peptide synthesis; Boc-Phe-O-resin; DCC/HOBt, DIC/HOBt or BOP", "conditions": "whole synthesis, scale 1 g resin, 0.61 mmol/g", "note": "Non-standard residues stand in square brackets, D forms with d. Tic = O=C(O)[C@@H]1Cc2ccccc2CN1; Cha = N[C@@H](CC1CCCCC1)C(=O)O", "data": [{"substance": "H-Y[Tic][Cha]F-OH", "values": [{"measurement": "isolated mass", "value": 45, "unit": "mg"}]}]}
